Source: patent US20130096282A1

What was measured:
[1] = molecular target: flagellin type A of multi-drug resistant P. aeruginosa strain PA1 (Pseudomonas aeruginosa); assay: immunoblot of bacterial lysates
[2] = molecular target: flagellin type A of multi-drug resistant P. aeruginosa strain PA141 (Pseudomonas aeruginosa); assay: immunoblot of bacterial lysates
[3] = molecular target: flagellin type A of multi-drug resistant P. aeruginosa strain PA409 (Pseudomonas aeruginosa); assay: immunoblot of bacterial lysates
[4] = molecular target: flagellin type A of multi-drug resistant P. aeruginosa strain PA49 (Pseudomonas aeruginosa); assay: immunoblot of bacterial lysates
[5] = molecular target: flagellin type B of multi-drug resistant P. aeruginosa strain PA21 (Pseudomonas aeruginosa); assay: western blot of P. aeruginosa lysates
[6] = molecular target: flagellin type A of multi-drug resistant P. aeruginosa strain PA1 (Pseudomonas aeruginosa); assay: western blot of bacterial lysates, mAb at 10 µg/ml
[7] = molecular target: flagellin type A of multi-drug resistant P. aeruginosa strain PA141 (Pseudomonas aeruginosa); assay: western blot of bacterial lysates, mAb at 10 µg/ml
[8] = molecular target: flagellin type A of multi-drug resistant P. aeruginosa strain PA409 (Pseudomonas aeruginosa); assay: western blot of bacterial lysates, mAb at 10 µg/ml
[9] = molecular target: flagellin type A of multi-drug resistant P. aeruginosa strain PA49 (Pseudomonas aeruginosa); assay: western blot of bacterial lysates, mAb at 10 µg/ml
[10] = molecular target: flagellin type B of multi-drug resistant P. aeruginosa strain PA21 (Pseudomonas aeruginosa); assay: immunoblot of P. aeruginosa lysates probed with LST-001, anti-mouse Fc peroxidase detection
[11] = molecular target: flagellin type A of multi-drug resistant P. aeruginosa strain PA141 (Pseudomonas aeruginosa); assay: immunoblot of P. aeruginosa lysates probed with LST-001 at 10 µg/ml, anti-mouse Fc peroxidase detection
[12] = molecular target: flagellin type A of multi-drug resistant P. aeruginosa strain PA49 (Pseudomonas aeruginosa); assay: as above
[13] = molecular target: flagellin type A of P. aeruginosa strain ATCC 27853 (Pseudomonas aeruginosa); assay: ELISA on formaldehyde-fixed whole bacteria
[14] = molecular target: flagellin type B of clinical P. aeruginosa isolate Ka01 (Pseudomonas aeruginosa); assay: ELISA on formaldehyde-fixed whole bacteria, mAb at 0.5 µg/ml
[15] = molecular target: flagellin type B of clinical P. aeruginosa isolate Ka03 (Pseudomonas aeruginosa); assay: as above
[16] = molecular target: flagellin type B of clinical P. aeruginosa isolate Ka04 (Pseudomonas aeruginosa); assay: as above
[17] = molecular target: flagellin type B of commercial P. aeruginosa strain 25619 (Pseudomonas aeruginosa); assay: as above
[18] = molecular target: flagellin type B of commercial P. aeruginosa strain NCTC 10662 (Pseudomonas aeruginosa); assay: as above
[19] = molecular target: flagellin type B of multi-drug resistant clinical P. aeruginosa isolate Ka02 (Pseudomonas aeruginosa); assay: as above
[20] = molecular target: flagellin type B of clinical P. aeruginosa isolate Ka01 (Pseudomonas aeruginosa); assay: ELISA on formaldehyde-fixed whole bacteria, single concentration
[21] = molecular target: flagellin type B of clinical P. aeruginosa isolate Ka03 (Pseudomonas aeruginosa); assay: as above
[22] = molecular target: flagellin type B of clinical P. aeruginosa isolate Ka04 (Pseudomonas aeruginosa); assay: as above
[23] = molecular target: flagellin type B of commercial P. aeruginosa strain 25619 (Pseudomonas aeruginosa); assay: as above
[24] = molecular target: flagellin type B of commercial P. aeruginosa strain NCTC 10662 (Pseudomonas aeruginosa); assay: as above
[25] = molecular target: flagellin type B of multi-drug resistant clinical P. aeruginosa isolate Ka02 (Pseudomonas aeruginosa); assay: as above
[26] = molecular target: flagellin type B of clinical P. aeruginosa isolate Ka01 (Pseudomonas aeruginosa); assay: ELISA on whole fixed bacteria (FIG. 9)
[27] = molecular target: flagellin type B of clinical P. aeruginosa isolate Ka03 (Pseudomonas aeruginosa); assay: ELISA on whole fixed bacteria (FIG. 9)
[28] = molecular target: flagellin type B of clinical P. aeruginosa isolate Ka04 (Pseudomonas aeruginosa); assay: ELISA on whole fixed bacteria (FIG. 9)
[29] = molecular target: flagellin type B of commercial P. aeruginosa strain 25619 (Pseudomonas aeruginosa); assay: ELISA on whole fixed bacteria (FIG. 9)
[30] = molecular target: flagellin type B of commercial P. aeruginosa strain NCTC 10662 (Pseudomonas aeruginosa); assay: ELISA on whole fixed bacteria (FIG. 9)
[31] = molecular target: flagellin type B of multi-drug resistant clinical P. aeruginosa isolate Ka02 (Pseudomonas aeruginosa); assay: ELISA on whole fixed bacteria (FIG. 9)
[32] = molecular target: flagellin type A of P. aeruginosa strain ATCC 27853 (Pseudomonas aeruginosa); assay: ELISA on whole immobilized bacteria, LST-007 supernatant
[33] = molecular target: flagellin type A of P. aeruginosa strain ATCC 27853 (Pseudomonas aeruginosa); assay: ELISA on formaldehyde-fixed whole bacteria, hybridoma supernatant
[34] = molecular target: flagellin type B of clinical P. aeruginosa isolate Ka01 (Pseudomonas aeruginosa); assay: as above
[35] = molecular target: flagellin type B of clinical P. aeruginosa isolate Ka03 (Pseudomonas aeruginosa); assay: as above
[36] = molecular target: flagellin type B of clinical P. aeruginosa isolate Ka04 (Pseudomonas aeruginosa); assay: as above
[37] = molecular target: flagellin type B of commercial P. aeruginosa strain 25619 (Pseudomonas aeruginosa); assay: as above
[38] = molecular target: flagellin type B of commercial P. aeruginosa strain NCTC 10662 (Pseudomonas aeruginosa); assay: as above
[39] = molecular target: flagellin type B of multi-drug resistant clinical P. aeruginosa isolate Ka02 (Pseudomonas aeruginosa); assay: as above
[40] = molecular target: flagellin type A of P. aeruginosa strain ATCC 27853 (Pseudomonas aeruginosa); assay: ELISA on formaldehyde-fixed whole bacteria, mAb at 1 nM
[41] = molecular target: flagellin type B of multi-drug resistant clinical P. aeruginosa isolate Ka02 (Pseudomonas aeruginosa); assay: as above
[42] = molecular target: flagellin type B of multi-drug resistant clinical P. aeruginosa isolate Ka02 (Pseudomonas aeruginosa); assay: ELISA on wells holding an equal mixture of formaldehyde-fixed PA27853 (type A) and Ka02 (type B) bacteria, mAb at 1 nM; the target within the mixture follows the filing's text, not the sheet
[43] = molecular target: flagellin type B of multi-drug resistant P. aeruginosa strain PA21 (Pseudomonas aeruginosa); assay: immunoblot of bacterial lysates (earlier result referred to in the legend)

B1: mouse monoclonal antibody LST-001 (antibody, V domains shown)
VH: DVQLQESGPGLVKPSQSLSLPCSVTGYSITSGYYWNWIRQFPGNKLEWMGYIRYDGNNNYNPSLKNRISITHDTSKNQFFLKLNYVTTEDTATYYCARGLQFYFDSWGQGTTLTVSS
VL: DIVMSQSPSSLAVSGGEKVTMSCKSSQSLLNGSYQKHTLAWYQQKPGQSPKLLIYWASTRESGVPDRFTGSGSGTDFTLTISSVKAEDLAVYYCQQYYSYPWTFGGGTKLEIKR
In the case of B1, the binding [1] is reported as “binds”, the binding [2] is reported as “binds” and the binding [3] is reported as “binds”. For the same binder, the binding [4] was “binds”, the binding [5] was “no binding (tested: 10 µg/ml)” and the binding [6] was “binds”. The binding [7] was “binds”, the binding [8] was “binds” and the binding [9] was “binds”. The binding [10] was “no binding (tested: 10 µg/ml)”, the binding [11] was “binds” and the binding [12] was “binds”.

B2: fully human recombinant mAb LST-008 (antibody, V domains shown)
VH: QVRLVQSGTEVKKPGASVRVSCKASGYTFSNYYMYWVRQAPGQGLEWMAMINPSGGSTRYAQKFQGRVTMTRDTSTSTVYMELSSLRSEDTAVYYCARADSGSYFGYWGQGTLVTVSS
VL: DIQLTQSPSFLSASVGDRVPITCRASQGISTHLAWYQQKPGKAPKLLIYAASTLQSGVPSRFSGSGSGTEFTLTISSLQPEDSATYYCQQLKSYPLTFGGGTKVEIKR
In the case of B2, the binding [13] is reported as “no binding (tested: 0.5 µg/ml)”, the binding [14] is reported as “binds” and the binding [15] is reported as “binds”. The binding [16] was “binds”, the binding [17] was “binds” and the binding [18] was “binds”. For the same binder, the binding [19] was “binds”, the binding [20] was “binds” and the binding [21] was “binds”. For the same binder, the binding [22] was “binds”, the binding [23] was “binds” and the binding [24] was “binds”. The binding [25] was “binds”.

B3: human monoclonal IgM antibody LST-007 (antibody, V domains shown)
VH: QVRLVQSGTEVKKPGASVRVSCKASGYTFSNYYMYWVRQAPGQGLEWMAMINPSGGSTRYAQKFQGRVTMTRDTSTSTVYMELSSLRSEDTAVYYCARADSGSYFGYWGQGTLVTVSS
VL: DIQLTQSPSFLSASVGDRVPITCRASQGISTHLAWYQQKPGKAPKLLIYAASTLQSGVPSRFSGSGSGTEFTLTISSLQPEDSATYYCQQLKSYPLTFGGGTKVEIKR
In the case of B3, the binding [26] is reported as “binds”, the binding [27] is reported as “binds” and the binding [28] is reported as “binds”. The binding [29] was “binds”, the binding [30] was “binds” and the binding [31] was “binds”. For the same binder, the binding [32] was “no binding”, the binding [33] was “no binding (tested: supernatant, concentration not given)” and the binding [34] was “binds”. The binding [35] was “binds”, the binding [36] was “binds” and the binding [37] was “binds”. For the same binder, the binding [38] was “binds” and the binding [39] was “binds”.

B4: chimeric mAb LST-004 (antibody, V domains shown)
VH: EVMLVESGGGLVKPGGSLKLSCAASGFTFSTFTMSWVRQTPEKRLECVATINGGGGNTYYPDSVKGRFTISRDNAKNNLYLQMSSLRSEDTAFYFCSRLYGIYAMDYWGQGTSVTVSS
VL: DIVMTQSHIFMSTSVGDRVSITCKASQDVGSAVAWYQQKPGQSPKVLIYWTSTRHTGVPDRFAGSGSGTEFTLTISNVQSEDLADYFCQQYSSYPLTFGAGTKLELKR
In the case of B4, the binding [13] is reported as “no binding (tested: 1 nM)”, the binding [40] is reported as “no binding (tested: 1 nM)” and the binding [41] is reported as “binds”. The binding [42] was “binds”.

B5: mouse monoclonal antibody LST-002 (antibody, V domains shown)
VH: EVMLVESGGGLVKPGGSLKLSCAASGFTFSTFTMSWVRQTPEKRLECVATINGGGGNTYYPDSVKGRFTISRDNAKNNLYLQMSSLRSEDTAFYFCSRLYGIYAMDYWGQGTSVTVSS
VL: DIVMTQSHIFMSTSVGDRVSITCKASQDVGSAVAWYQQKPGQSPKVLIYWTSTRHTGVPDRFAGSGSGTEFTLTISNVQSEDLADYFCQQYSSYPLTFGAGTKLELKR
With B5 the binding [43] was “binds”.

Results are given in words; binding and its absence hold for the method and conditions named. For some assays here: Binding calls can cover weak binding; strength is not graded here.
